PubChem BioAssay AID2685 (National Center for Advancing Translational Sciences (NCATS), 2010)
Hit rate of the full screen: of about 320,000 compounds, about 2,100 (0.66%) were called active. Inconclusive results, whose numbers are uncertain, are shown with a selection of clear calls. The call rests on the fitted dose curve; in most records, active means well fitted inhibition curve with a large enough effect in the signal ratio, with a control signal flat (not every such curve was filed as active); inconclusive means small, poorly fitted or top-dose-only effect, or effect the other way, or a change in a side signal; inactive means flat fitted curve, though single readings scatter; the % refers to the signal ratio. Potencies of inconclusive entries are doubtful fits and often do not repeat.
On the % scale 0 is the no-effect control and ±100 the full control effect; potency means the concentration at half of the fitted maximal effect.

Test: qHTS Assay for Lipid Storage Modulators in Drosophila S3 Cells
Conditions: BODIPY lipid droplet fluorescence, 18-24 h, cells fed with added oleic acid; lipid storage change, negative = inhibition: at 46.1 µM (top of the series) unless noted
Procedure, shortened: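 Laser-scanning cytometry quantifies lipid droplet accumulation (500–530 nm total intensity; droplet/cell object ratio) in oleic acid-fed (400 uM added) Drosophila S3 cells treated with a concentration series. 20 uM Triacsin C defined 100% inhibition.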
For `Cc1cc(NC(=O)COC(=O)c2c(C)nn(Cc3ccccc3)c2C)no1`, the Potency was inconclusive: 184 nM [activator, full curve].
In the case of `CCN1CCC2(CCNC2)C1` (centres undefined), the lipid storage change, negative = inhibition is reported as inconclusive: 15.5%.
For `O=C(COc1ccccc1)N1CCN(Cc2c[nH]c3ccccc23)CC1`, the lipid storage change, negative = inhibition was inconclusive: 40.7%.
For `O=C(c1ccc(Cl)cc1)C1CCCN(Cc2cccc3ncccc23)C1` (centres undefined), the Potency was inconclusive: 23100 nM [falling, single point].
With `COc1cc(NC(=O)CCn2c(=O)oc3ccccc32)cc(OC)c1OC` the Potency was inconclusive: 29100 nM [activator, single point].
In the case of `C[C@]12CCC3[C@@H](CC[C@H]4C[C@@H](O)CC[C@]34C)C1CCC2=O` (some centres undefined), the “outcome” value is reported as “inactive”.
With `CCCc1nc2ccccc2c(=O)n1-c1cccc(OC)c1` the lipid storage change, negative = inhibition was inconclusive: -3.37%.
With `COC(=O)CC1(Cc2ccccc2)C(=O)NC(=O)NC1=O` the lipid storage change, negative = inhibition was inconclusive: -55.4%.
In the case of `O=C(CCN1CCCCC1)Nc1ccc(Br)cc1C(=O)c1ccccc1`, the lipid storage change, negative = inhibition is reported as inconclusive: 11.2%.
In the case of `O=c1c2ccccc2nc(/C=C/c2ccccn2)n1-c1ccccc1`, the “outcome” value is reported as “inactive”.
With `CC1(C)N(O)C2CCCCC2N1O` (centres undefined) the lipid storage change, negative = inhibition was inconclusive: -2.04%.
In the case of `COC(=O)C1=C(c2ccc(-c3ccccc3)c(F)c2)C[C@@H]2CC[C@H]1N2C(=O)N1CCc2cc(OC)c(OC)cc2C1`, the lipid storage change, negative = inhibition is reported as inconclusive: -19.8%.
In the case of `CCCCn1c(O)c(C(C)=NCCN2CCCCC2)c(=O)[nH]c1=O`, the Potency is reported as inconclusive: 116 nM [falling, full curve].
With `Cc1[nH]c2ccccc2c1C(=O)CN1CC=C(c2ccccc2)CC1` the lipid storage change, negative = inhibition was inconclusive: -0.109%.
In the case of `COc1cc(C)c(CN2CC=C(c3ccc(F)cc3)CC2)cc1C`, the Potency is reported as inconclusive: 116 nM [activator, full curve, poor fit].
In the case of `Cc1ccc2c(c1)CC1(CN2C)C(=O)NC(=O)N(c2ccc(C)c(C)c2)C1=O` (centres undefined), the lipid storage change, negative = inhibition is reported as inconclusive: 19.1%.
In the case of `Cc1ccc2c(c1)C1CN(C)CCC1N2C(=O)/C(C#N)=C/c1ccc2c(c1)OCO2` (centres undefined), the Potency is reported as inconclusive: 18400 nM [falling, single point].
With `N#C/C(N)=C(/N)C#N` the lipid storage change, negative = inhibition was inconclusive: -29.1%.
In the case of `Cn1c[n+](C)cc1C(O)c1ccccc1` (centres undefined), the lipid storage change, negative = inhibition is reported as inconclusive: 5.53%.
With `Cc1ccc2c(c1)C1CN(C)CCC1N2C(=O)c1ccc(Br)o1` (centres undefined) the Potency was inconclusive: 4110 nM [rising, partial curve, poor fit].
In the case of `CCOC(=O)c1c(C)n(Cc2ccc(F)cc2)c2ccc(O)cc12`, the lipid storage change, negative = inhibition is reported as inconclusive: 29.1%.
For `CCOC(=O)c1c(C=O)c2ccccc2n1Cc1ccccc1`, the “lipid storage change, negative = inhibition” value was inactive: 17.4%.
For `C=CCN1C(=O)NC(=O)/C(=C/c2ccc(OCC(=O)Nc3ccc(C)cc3)cc2)C1=O`, the lipid storage change, negative = inhibition was inconclusive: 18.1%.
In the case of `C=C1C(=O)O[C@@H]2C[C@@H](C)[C@H]3C=CC(=O)[C@]3(O)C[C@@H]12`, the Potency is reported as inconclusive: 1030 nM [falling, full curve, poor fit].
With `C=CCn1c(O)c(C=Nc2ccc(N(CC)CC)cc2)c(=O)[nH]c1=O` the lipid storage change, negative = inhibition was inconclusive: 40.9%.
In the case of `N#Cc1ccc(N2CCNCC2)c(F)c1`, the Potency is reported as inconclusive: 1160 nM [falling, full curve].
In the case of `COc1ccc(OC)c(NC(=O)Cn2c(=O)oc3ccccc32)c1`, the Potency is reported as inconclusive: 29100 nM [activator, single point].
With `c1cncc(CNC2CCCCC2)c1` the lipid storage change, negative = inhibition was inconclusive: -32.3%.
With `O=[N+]([O-])c1cc([As](=O)(O)O)ccc1O` the lipid storage change, negative = inhibition was inconclusive: -16.2%.
In the case of `COc1ccc(-c2[nH]ncc2CNC(C)Cc2ccsc2)c(F)c1` (centres undefined), the lipid storage change, negative = inhibition is reported as inconclusive: 18.1%.
In the case of `CCN1CC2(COC(=O)c3ccccc3N)CCC(OC)C34C5CC6C(OC)CC(O)(C5C6OC)C(O)(C(OC)C23)C14` (centres undefined), the lipid storage change, negative = inhibition is reported as inconclusive: 8.44%.
With `C=CCn1c(O)c(C(C)=NCCCN(C)C)c(=O)[nH]c1=O` the lipid storage change, negative = inhibition was inconclusive: -4.47%.
In the case of `Nc1cc(Cl)c(N)cc1Cl`, the Potency is reported as inconclusive: 1640 nM [falling, full curve].
In the case of `CN1CCCN(C(=O)COc2ccc(F)cc2Cl)CC1`, the Potency is reported as inconclusive: 580 nM [activator, single point].
In the case of `CCC(=O)c1c(O)n(C2CCCCCC2)c(=O)[nH]c1=O`, the lipid storage change, negative = inhibition is reported as inconclusive: -4.17%.
For `C=CCN1C(=O)/C(=C/c2cc(C)n(-c3ccccn3)c2C)C(=O)NC1=S`, the lipid storage change, negative = inhibition was inconclusive: 11.5%.
For `CC(C)N(Cc1ccccc1)C(=O)CCS(=O)(=O)c1ccc2c(c1)oc(=O)n2C`, the Potency was inconclusive: 517 nM [falling, full curve].
For `COc1ccc(CN2CCN(c3ccccc3F)CC2)c(OC)c1`, the lipid storage change, negative = inhibition was inconclusive: 18.5%.
With `CC(C)C(=O)N1CCN(CCN=Cc2c(O)n(C)c(=O)n(C)c2=O)CC1` the Potency was inconclusive: 2590 nM [activator, partial curve].
In the case of `Cc1ccc(C(=O)O)cc1N=Nc1c(O)[nH]c(=O)[nH]c1=O`, the Potency is reported as inconclusive: 116 nM [falling, full curve, poor fit].
With `O=c1[nH]c(=S)n(Cc2ccc(F)cc2)c(O)c1C=NCc1ccc2c(c1)OCO2` the lipid storage change, negative = inhibition was inconclusive: 27%.
In the case of `CN(C)C(=O)Oc1ccc(Br)c2ccccc12`, the Potency is reported as inconclusive: 116 nM [falling, full curve, poor fit].
In the case of `O=C(c1cc2ccccn2n1)N1CCC2(CC1)OCCO2`, the lipid storage change, negative = inhibition is reported as inconclusive: -1.21%.
With `CCOC(=O)c1c(C)[nH]c(C)c1C(=O)C(Cc1ccccc1)N(C)C` (centres undefined) the lipid storage change, negative = inhibition was inconclusive: 15.9%.
For `Fc1ccccc1CNCCc1ccc2c(c1)OCO2`, the lipid storage change, negative = inhibition was inconclusive: 83.2%.
With `CCNC(=S)NCCC1=c2ccccc2=N/C1=C\c1c(O)n(C)c(=O)n(C)c1=O` the Potency was inconclusive: 29100 nM [falling, single point].
For `COc1ccc(OC)c([C@@H](O)[C@H](C)NC(C)(C)C)c1`, the lipid storage change, negative = inhibition was inconclusive: -3.54%.
In the case of `CC(C)OP(=O)(OC(C)C)C(NC(=O)c1ccccc1)C(N)=O` (centres undefined), the Potency is reported as inconclusive: 5.8 nM [falling, full curve, poor fit].
In the case of `C=CCn1c(O)c(C=Nc2c(C)n(C)n(-c3ccccc3)c2=O)c(=O)[nH]c1=O`, the lipid storage change, negative = inhibition is reported as inconclusive: -0.841%.
With `Cc1cccc(NC(=O)COC(=O)c2cc(C)n(C3CC3)c2C)c1` the lipid storage change, negative = inhibition was inconclusive: -45.3%.
With `O=[N+]([O-])c1cc(-n2cnnn2)c(O)c([N+](=O)[O-])c1` the lipid storage change, negative = inhibition was inconclusive: 21.4%.
With `COc1cccc(CNCCc2ccc(F)cc2)c1` the lipid storage change, negative = inhibition was inconclusive: 15%.
With `COc1cc(CC2C(=O)N(C)C(=O)N(C)C2=O)ccc1OCc1ccccc1` the lipid storage change, negative = inhibition was inconclusive: -4.3%.
With `Cc1ccc(-n2c(-c3cccs3)nc3ccccc3c2=O)cc1` the lipid storage change, negative = inhibition was inconclusive: -13.3%.
With `Fc1ccccc1CN1CCN(c2ccc(Cl)cc2)CC1` the lipid storage change, negative = inhibition was inconclusive: -21%.
For `COc1ccc2c3c([nH]c2c1)C(C)NCC3` (centres undefined), the Potency was inconclusive: 32600 nM [falling, partial curve, poor fit].
In the case of `O=C(c1ccc(F)cc1)C(Cc1ccccc1)N1CCCCC1` (centres undefined), the lipid storage change, negative = inhibition is reported as inconclusive: -5.2%.
For `COc1ccc(CC2C(=O)NC(=O)N(c3ccccc3)C2=O)c(OC)c1` (centres undefined), the Potency was inconclusive: 651 nM [falling, full curve].
For `O=C(O)c1sc2cc(Cl)ccc2c1Cl`, the lipid storage change, negative = inhibition was inconclusive: 12.7%.
For `CC(C)OC(=O)c1c(N)n(Cc2ccco2)c2nc3ccccc3nc12`, the Potency was inconclusive: 820 nM [activator, partial curve].
For `Cc1nn(Cc2ccccc2Cl)c(C)c1C(=O)OCC(=O)NC1CCCC(C)C1C` (centres undefined), the Potency was inconclusive: 517 nM [activator, full curve].
With `Nc1nnc(P(c2ccccc2)c2ccccc2)s1` the lipid storage change, negative = inhibition was inconclusive: -6.01%.
For `CC(Cc1ccccc1)N1Cc2ccccc2C1` (centres undefined), the lipid storage change, negative = inhibition was inconclusive: -14.8%.
In the case of `COC(=O)[C@@H]1C[C@H]1[C@@H](NP(=O)(c1ccccc1)c1ccccc1)c1ccccc1`, the lipid storage change, negative = inhibition is reported as inconclusive: 14%.
In the case of `COc1ccc(CNCCc2ccc(Cl)cc2Cl)cc1`, the Potency is reported as inconclusive: 14600 nM [activator, single point].
In the case of `O=[N+]([O-])c1cc(Cl)c(Cl)cc1Cl`, the lipid storage change, negative = inhibition is reported as inconclusive: -4.45%.
For `Cc1cccc(-n2c(O)c(/C=N/NC(=O)c3ccncc3)c(=O)[nH]c2=O)c1`, the lipid storage change, negative = inhibition was inconclusive: -23.8%.
With `O=C(C(=O)N1CCOCC1)c1cn(Cc2ccc(F)cc2)c2ccccc12` the lipid storage change, negative = inhibition was inconclusive: 11.5%.
With `COc1cc(OC)c(OC)cc1CNCCc1cccc(F)c1` the lipid storage change, negative = inhibition was inconclusive: 17.1%.
With `CC(=O)c1cn(CCCOc2ccccc2)c2ccccc12` the Potency was inconclusive: 29100 nM [falling, single point].
In the case of `O=C(CN1CCCCC1)c1ccc2c(c1)OCO2`, the lipid storage change, negative = inhibition is reported as inconclusive: -18.4%.
For `CCOC(=O)C1=C(N)OC2=C(C(=O)CCC2)C12C(=O)Nc1ccccc12` (centres undefined), the lipid storage change, negative = inhibition was inconclusive: -16.9%.
For `COc1cc(OC)c(OC)cc1CN1CCN(C(=O)Cc2ccccc2)CC1`, the Potency was inconclusive: 4610 nM [activator, full curve, poor fit].
With `Cc1cc(C)cc(NC2=NCCCS2)c1` the lipid storage change, negative = inhibition was inconclusive: 8.4%.
With `Cc1ccc(C2NC(=S)NC(c3ccc(C)cc3)C23C(=O)NC(=O)NC3=O)cc1` (centres undefined) the lipid storage change, negative = inhibition was inconclusive: 3.28%.
For `O=C1CN(O)C(c2ccccc2Cl)=c2cc(Br)ccc2=N1`, the lipid storage change, negative = inhibition was inconclusive: -35.6%.
In the case of `CCOC(=O)C1=C(N)Oc2cc(C)oc(=O)c2C12C(=O)N1c3c(cccc32)C(C)CC1(C)C` (centres undefined), the Potency is reported as inconclusive: 731 nM [falling, full curve].
In the case of `CC(=O)Nc1cc(C(=O)N2CCC3(CC2)OCCO3)ccc1Sc1ccc(F)cc1`, the lipid storage change, negative = inhibition is reported as inconclusive: 17%.
For `O=C1C2(Cl)C3(Cl)C4(Cl)C(Cl)(Cl)C5(Cl)C3(Cl)C1(Cl)C5(Cl)C24Cl` (centres undefined), the lipid storage change, negative = inhibition was inconclusive: -11.5%.
